Laboratory results: PubChem BioAssay AID1439 (NMMLSC, 2008)
Screen size: about 220,000 compounds; about 770 (0.35%) were called active. This list was built around the results that the source calls inconclusive (neither active nor inactive); the mix of calls is not that of the screen. No stated cut-off is given here; in the data, active means binding response below about 49% or above about 150%; inconclusive means no clear call, values can overlap the other calls; inactive means in between.

Sequences of proteins named here, by UniProt entry; tags and fusion partners are left off.
UniProt P09471, whole entry, looked up: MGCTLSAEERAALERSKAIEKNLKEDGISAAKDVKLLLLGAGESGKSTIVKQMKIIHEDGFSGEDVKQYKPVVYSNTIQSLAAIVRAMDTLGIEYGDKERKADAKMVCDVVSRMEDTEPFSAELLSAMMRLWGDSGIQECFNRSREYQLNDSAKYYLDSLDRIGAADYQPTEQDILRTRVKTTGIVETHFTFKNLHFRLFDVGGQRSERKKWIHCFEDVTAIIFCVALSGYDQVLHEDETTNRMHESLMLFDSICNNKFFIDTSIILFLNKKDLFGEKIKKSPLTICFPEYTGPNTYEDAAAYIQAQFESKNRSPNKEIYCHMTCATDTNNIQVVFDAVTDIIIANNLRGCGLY

Target: Guanine nucleotide-binding protein G(o) subunit alpha (Homo sapiens) (UniProt P09471)
Test: RGS7-Galphao binding modulators, primary screen, biochemical, multiplexed bead flow cytometry (AID 1439);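 further: fluorescent Galphao held in activated GDP-AlF4 state binding bead-coupled RGS7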
Conditions: at 10 µM, actives lie on both sides

Row | SMILES | binding response (% of control)
1 | C=C(C)C(=O)Nc1cccc(C2=NOC3(C2)C[C@H](C(N)=O)N(C(=O)C(c2ccccc2)c2ccccc2)C3)c1 (stereo not given in full) | inconclusive: 93.5%
2 | Brc1ccccc1OCCCCn1cnc2ccccc21 | inconclusive: 92.4%
3 | COc1ccc(NC(=O)c2nc[nH]c2C(=O)N(C)Cc2ccccc2)cc1 | inconclusive: 102%
4 | O=C(Nc1nc(=O)n(C(=O)c2cccc(C(F)(F)F)c2)s1)c1ccccc1 | inconclusive: 96.6%
5 | COc1cccc(-c2c(C#N)c(SC)nc3cc(C)nn23)c1 | inconclusive: -156%
6 | COc1ccc(N(CC(=O)Nc2ccccc2C)S(=O)(=O)c2c(C)[nH]c(=O)[nH]c2=O)cc1 | inconclusive: 85.3%
7 | O=C(c1cc(=O)[nH]c2ccccc12)N1CCN(c2cccc(C(F)(F)F)c2)CC1 | inconclusive: 125%
8 | Nc1nc(SCC(=O)Nc2ccc(Cl)cn2)n[nH]1 | inactive: 99.5%
9 | O=S(=O)(Nc1ccccc1O)c1ccc(Cl)nc1 | inconclusive: 109%
10 | O=C(N[C@@H](Cc1ccccc1)C(=O)OCC(=O)N1CCOCC1)c1cccs1 | inconclusive: 118%
11 | Cc1c(C(=O)O)cc(C(C)(C)C)n1CCSCCO | inconclusive: 98.6%
12 | COc1ccc2[nH]c3c(=O)n4c(nc3c2c1)SCCC4 | inactive: 102%
13 | Cc1ccc(-n2[nH]c(C)c(/C=N/c3cccc(C)n3)c2=O)cc1 | inconclusive: 105%
14 | Cc1ccc(/C=N/n2c(COc3ccccc3)n[nH]c2=S)o1 | inconclusive: 100%
15 | NS(=O)(=O)c1cccc(NC(=O)COC(=O)CCCc2c[nH]c3ccccc23)c1 | inconclusive: 88%
16 | O=C(Nc1cccc(Br)c1)c1ccc(OC2CSC2)cc1 | inactive: 94.8%
17 | COC(=O)c1ccc(-c2ccc(/C=N/NC(=O)Cc3nnc(N)s3)o2)cc1 | inconclusive: 86.2%
18 | Cc1ccc(C(CCNC(C)c2cccs2)c2ccco2)cc1 (stereo not given) | inconclusive: 2.32%
19 | CCc1nnc(NC(=O)Cc2c[nH]c3ccccc23)s1 | inconclusive: 107%
20 | Cc1ccc(NC(=O)CSc2cccc[n+]2[O-])c([N+](=O)[O-])c1 | inconclusive: 105%
21 | COC(=O)C(C)N1CCC(=O)c2ccccc2S1(=O)=O (stereo not given) | inconclusive: 116%
22 | O=S(=O)(NC1CCN(Cc2ccccc2)CC1)c1ccc2ccccc2c1 | inconclusive: 93.8%
23 | COc1ccc(-c2ccc(C)cc2)cc1[C@H]1[C@@H]2C=CCC[C@@]2(C)C(=O)N1Cc1ccccc1 | inconclusive: 102%

5 successive records out of the list so far, for reference:
Row | SMILES | binding response (% of control)
1 | C=C(C)C(=O)Nc1cccc(C2=NOC3(C2)C[C@H](C(N)=O)N(C(=O)C(c2ccccc2)c2ccccc2)C3)c1 (stereo not given in full) | inconclusive: 93.5%
2 | Brc1ccccc1OCCCCn1cnc2ccccc21 | inconclusive: 92.4%
3 | COc1ccc(NC(=O)c2nc[nH]c2C(=O)N(C)Cc2ccccc2)cc1 | inconclusive: 102%
4 | O=C(Nc1nc(=O)n(C(=O)c2cccc(C(F)(F)F)c2)s1)c1ccccc1 | inconclusive: 96.6%
5 | COc1cccc(-c2c(C#N)c(SC)nc3cc(C)nn23)c1 | inconclusive: -156%

More compounds follow:

Row | SMILES | binding response (% of control)
24 | O=C(Nc1ccc2c(c1)OCO2)[C@@H]1[C@@H]2C(=O)N(C3CCCCC3)C(=O)[C@@H]2C2c3ccccc3C=CN21 (stereo not given in full) | inactive: 81.2%
25 | CC(=O)c1cccc(NC(=O)c2nc(-c3ccccc3)oc2C)c1 | inactive: 99%
26 | COc1ccc(OC(=O)Nc2ccc([N+](=O)[O-])cc2OC)cc1 | inconclusive: -268%
27 | O=C(Cc1ccccc1[N+](=O)[O-])Nc1nccs1 | inconclusive: 150%
28 | CNC(=O)c1ccc(-c2ccc(Cl)c(Cl)c2)s1 | inconclusive: 101%
29 | O=C(C1CCCN(S(=O)(=O)c2ccccc2[N+](=O)[O-])C1)N1CCN(c2ccccc2)CC1 (stereo not given) | inactive: 97.7%
30 | Cn1c(=O)c2c(ncn2CC(O)CNc2ccc(F)cc2)n(C)c1=O (stereo not given) | inconclusive: 88.2%
31 | CCN(Cc1ccncc1)Cc1cn[nH]c1-c1ccc(OC)cc1F | inactive: 96.1%
32 | OC(CNCc1ccc(Cl)cc1)C(F)(F)F (stereo not given) | inactive: 104%
33 | O=C(O)CCc1cc(I)c(Oc2ccc(O)c(I)c2)c(I)c1 | inconclusive: 107%
34 | COc1cccc(OC)c1C(=O)N=c1sc2cc(S(C)(=O)=O)ccc2n1C | inconclusive: 96.7%
35 | CCOC(=O)c1sc2nc(CSc3ccccc3)nc(NCCN(C)C)c2c1C | inactive: 103%
36 | CC1(C)SC(=S)N(/N=C/c2ccccc2)C1N(O)C(=O)Nc1ccc([N+](=O)[O-])cc1 (stereo not given) | inactive: 99.7%
37 | CCCNC(=O)COC(=O)/C(C#N)=C/c1cc(C)n(CCC)c1C | inactive: 90.7%
38 | O=[N+]([O-])/C=C1\CCCCCN1 | inconclusive: 140%
39 | Cc1nn(-c2ccccc2)c2c1C1(C(=O)N(C(C)C)c3ccccc31)C(C#N)=C(N)O2 (stereo not given) | inactive: 100%
40 | Cc1ccc(NC(=O)CN2CCC(Cc3ccccc3)CC2)cc1S(=O)(=O)N(C)C | inconclusive: 97.5%
41 | COc1cc(O)c(C(CC(=O)N2CCOCC2)c2cc(OC)c(OC)c(OC)c2)c(OC)c1 (stereo not given) | inconclusive: 93.5%
42 | NC(=O)CC(NC(=O)Cc1ccc(Br)cc1)c1ccc(NC2CCCCCC2)c([N+](=O)[O-])c1 (stereo not given) | inconclusive: 105%
43 | CCc1cc(CNC(=O)CC2C(=O)NCCN2Cc2ccccc2C(F)(F)F)on1 (stereo not given) | inconclusive: 123%
44 | Cc1ccc2c(c1)COc1c3ccc(C(=O)NCC4CC4)cc3nn1-2 | inconclusive: 113%
45 | Cc1sc2ncnc(N)c2c1C | inconclusive: 132%
46 | CCN(CC)C(=O)CSc1nc2c(sc(=S)n2-c2ccccc2)c(=O)[nH]1 | inconclusive: 125%

Row | SMILES | binding response (% of control)
47 | CNC(=O)Nc1cccc(-c2ccnc(C)n2)c1 | inconclusive: 137%
48 | COc1ccc(NC(=O)COC(=O)c2ccc([N+](=O)[O-])o2)cc1Cl | inconclusive: 98.9%
49 | CC(NC(=O)C1CCC(CNc2c(N3CCCCC3)c(=O)c2=O)CC1)c1ccccc1 (stereo not given) | inconclusive: 75%
50 | Cc1ccc2c(c1C)NC(=O)CC(c1ccccc1O)=N2 | inconclusive: 104%
51 | O=C(CCN1C(=O)c2ccccc2C1=O)C1=NN[C@@H]2C(=O)N(c3ccc4c(c3)OCCO4)C(=O)[C@H]12 | inconclusive: 55.8%
52 | Cc1ccc(CS/C(Nc2ccccc2C)=C(\C#N)C(=O)NCc2ccco2)c(C)c1 | inactive: 100%
53 | C/C(=N\NC(=O)c1cccs1)c1ccc2c(c1)OCO2 | inconclusive: 103%
54 | CCOCCCNCc1ccc(OCc2ccc(F)cc2)c(OC)c1 | inactive: 103%
55 | CCn1c(C)nc2cc(C#N)ccc21 | inconclusive: 117%
56 | CC(C)(C)c1ccc(OCCCNC2CCCC2)cc1 | inconclusive: 122%
57 | O=C(O)/C=C/c1cn(Cc2ccccc2)nc1-c1ccc(Cl)cc1 | inactive: 101%
58 | CC(C)(C)c1ccc(NNC(=O)C2CCC2)cc1 | inconclusive: 95%
59 | CN(Cc1nc(-c2ccccc2)no1)C1CCOCC1 | inconclusive: 169%
60 | CC(C)(C)NC(=S)N/N=C/c1cc(Br)c(O)c(Br)c1 | inconclusive: 81.7%
61 | CCOC(=O)c1cnc(SCC#N)nc1N | inconclusive: 115%
62 | Cc1nnc(NC(=O)CCC(=O)N2CCN(CCOc3cccc4ccccc34)CC2)s1 | inconclusive: 79.7%
63 | O=S(=O)(c1cccc(C(F)(F)F)c1)N1CCN(C(=S)NC2CC2)CC1 | inactive: 97.7%
64 | C/C(=N/NC(=O)CN1CCN(S(=O)(=O)c2ccc(Br)cc2)CC1)c1ccncc1 | inconclusive: -56.9%
65 | COc1ccccc1CNC(=O)Cn1cnc2ccccc2c1=O | inactive: 122%
66 | CC(NC(=O)COc1ccccc1)C(c1cccs1)N1CCCC1 (stereo not given) | inconclusive: 112%
67 | O=C(Cn1c(CO)nc2ccccc21)Nc1ccccc1Cl | inconclusive: 80.1%
68 | CC(C)C(=O)NC(=S)Nc1c(Cl)ccc2nsnc12 | inconclusive: 36.8%
69 | CCOC(=O)NC(=O)/C(C#N)=C\Nc1ccc(Cl)cc1Cl | inconclusive: 97.2%

Row | SMILES | binding response (% of control)
70 | O=C(CNC(=O)c1ccc(F)cc1)N/N=C/c1cc(Br)ccc1OC(=O)/C=C/c1ccco1 | inconclusive: 111%
71 | COc1ccc(C(=O)Nc2nc3cc4c(cc3s2)OCCO4)c(OC)c1 | inconclusive: 215%
72 | CN1C(=O)CC(N2CCC(C(N)=O)CC2)C1=O (stereo not given) | inactive: 92.8%
73 | O=C(CCCn1cc([N+](=O)[O-])cn1)Nc1cccnc1 | inconclusive: 98.7%
74 | CSc1nc(N)n(-c2cc(C(F)(F)F)ccn2)n1 | inconclusive: 843%
75 | C=CCN(CC=C)C(=O)Nc1cc(OC)ccc1OC | inconclusive: 148%
76 | O=C(/C=C/Nc1ccc(S(=O)(=O)Nc2cnc3ccccc3n2)cc1)c1ccccc1 | inconclusive: 107%
77 | Cc1ccc(OCCSc2nnc(C)c(=O)n2N)cc1 | inactive: 99.7%
78 | NS(=O)(=O)c1ccc(NC(=O)COC(=O)COc2ccc(Cl)cc2)cc1 | inconclusive: 91.7%
79 | Nc1nc(NC(=O)/C=C/c2ccc(F)cc2)nn1-c1ccccc1 | inconclusive: 107%
80 | C(=N\Nc1ccccc1)/c1nc2ccccc2s1 | inconclusive: 94.2%
81 | O=S(=O)(NCc1ccccc1)c1ccc(Br)c2nsnc12 | inconclusive: 94.5%
82 | Fc1ccc(Cn2cc(C(=S)N3CCOCC3)c3ccccc32)cc1 | inconclusive: 96.8%
83 | COc1ccc(-c2nc(NC(C)=O)sc2-c2ccc(OC)cc2)cc1 | inconclusive: 98.8%
84 | NS(=O)(=O)c1cc(C(=O)OCC(=O)Nc2ccccc2[N+](=O)[O-])ccc1Cl | inconclusive: 94.7%
85 | COC(=O)CSc1[nH]c2ccccc2c1[N+](=O)[O-] | inconclusive: 79.3%
86 | CCCOC(=O)CCCN1C(=O)/C(=C2\SC(=S)N(CCCC(=O)OCCC)C2=O)SC1=S | inconclusive: 96%
87 | COc1cc2c(cc1OC)C(Nc1ccccc1)=NC(C)(C)C2 | inactive: 102%
88 | CC1CCC2(CC1)C(Nc1cccc(Cl)c1)=NC(=S)N2CC#N (stereo not given) | inactive: 102%
89 | O=C(O)c1cc(-c2ccc(/C=C3\NC(=O)N(c4ccccc4)C3=O)o2)ccc1Cl | inconclusive: 150%
90 | CC(=O)c1c(COC(=O)c2ccc(F)cc2)nc2ccccc2[n+]1[O-] | inconclusive: 129%
